Patent US20120141451A1

Amino acid sequences for entries named in this document (tags omitted). A change or cut given only in a name is not applied to a line headed by its entry.
UniProt P13596: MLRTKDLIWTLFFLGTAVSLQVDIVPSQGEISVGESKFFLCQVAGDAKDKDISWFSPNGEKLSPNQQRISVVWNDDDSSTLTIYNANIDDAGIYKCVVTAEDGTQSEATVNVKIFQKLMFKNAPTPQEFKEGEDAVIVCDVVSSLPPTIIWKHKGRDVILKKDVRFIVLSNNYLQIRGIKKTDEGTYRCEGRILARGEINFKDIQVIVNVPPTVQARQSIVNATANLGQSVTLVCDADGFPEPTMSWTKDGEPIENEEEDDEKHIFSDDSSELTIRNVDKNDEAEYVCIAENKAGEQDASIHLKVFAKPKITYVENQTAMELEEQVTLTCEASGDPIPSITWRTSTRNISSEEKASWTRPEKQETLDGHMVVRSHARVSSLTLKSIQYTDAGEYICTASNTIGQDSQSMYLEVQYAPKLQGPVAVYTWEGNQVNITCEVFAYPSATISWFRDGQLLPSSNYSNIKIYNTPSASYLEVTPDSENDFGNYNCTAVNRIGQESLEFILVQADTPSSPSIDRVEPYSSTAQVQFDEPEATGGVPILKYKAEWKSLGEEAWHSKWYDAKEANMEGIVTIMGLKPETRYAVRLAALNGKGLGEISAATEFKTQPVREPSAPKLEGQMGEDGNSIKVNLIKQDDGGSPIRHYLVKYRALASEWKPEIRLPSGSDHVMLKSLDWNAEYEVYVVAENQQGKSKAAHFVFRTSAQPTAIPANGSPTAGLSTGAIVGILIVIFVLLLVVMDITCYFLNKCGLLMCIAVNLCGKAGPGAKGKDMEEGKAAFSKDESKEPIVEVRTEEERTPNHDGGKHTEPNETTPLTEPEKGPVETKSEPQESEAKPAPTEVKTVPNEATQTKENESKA

What was measured:
[1] = target: rat NCAM F3 modules 1-2 (rat) (UniProt P13596); assay: sensorgram (Response diff., RU against time), soluble peptide AKTVKFK at 2-500 µg/ml on immobilized NCAM F3(1-2)
[2] = target: rat NCAM F3 modules 1-2 (rat) (UniProt P13596); assay: sensorgram (Response diff., RU against time), soluble peptide … at 2-500 µg/ml on immobilized NCAM F3(1-2)

binding [1]	binding [2]	Binder
binds	–	AKTVKFK [FGFR1-Ig2 derived peptide AKTVKFK (amino acids 171-177)]
–	binds	RWLKNGKEFK [FGFR1-Ig2 derived peptide … (amino acids 189-198)]

These are yes or no findings as the source states them, for the method shown. Binding calls can cover weak binding; strength is not graded here.
